The target of the assay is T1, Glutathione-S-transferases-theta1 (GSTT1) (human (endogenous in SOC cell lines HO8910 / SKOV3)) (UniProt P30711).
T1 sequence: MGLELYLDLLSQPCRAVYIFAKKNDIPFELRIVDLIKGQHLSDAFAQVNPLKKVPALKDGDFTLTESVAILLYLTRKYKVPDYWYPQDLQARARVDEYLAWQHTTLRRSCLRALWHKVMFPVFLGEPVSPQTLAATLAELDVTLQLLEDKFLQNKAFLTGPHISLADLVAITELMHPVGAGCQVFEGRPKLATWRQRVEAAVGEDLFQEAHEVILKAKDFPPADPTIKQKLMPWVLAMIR
The assay is described as follows: co-IP; 1 mg of total protein immunoprecipitated with anti-GSTT1 or anti-Topo I (1:40) in lysis buffer for 12 h, protein A and G beads, SDS-PAGE; endogenous proteins.

Sequences of proteins named here, by UniProt entry; tags and fusion partners are left off.
UniProt P11387: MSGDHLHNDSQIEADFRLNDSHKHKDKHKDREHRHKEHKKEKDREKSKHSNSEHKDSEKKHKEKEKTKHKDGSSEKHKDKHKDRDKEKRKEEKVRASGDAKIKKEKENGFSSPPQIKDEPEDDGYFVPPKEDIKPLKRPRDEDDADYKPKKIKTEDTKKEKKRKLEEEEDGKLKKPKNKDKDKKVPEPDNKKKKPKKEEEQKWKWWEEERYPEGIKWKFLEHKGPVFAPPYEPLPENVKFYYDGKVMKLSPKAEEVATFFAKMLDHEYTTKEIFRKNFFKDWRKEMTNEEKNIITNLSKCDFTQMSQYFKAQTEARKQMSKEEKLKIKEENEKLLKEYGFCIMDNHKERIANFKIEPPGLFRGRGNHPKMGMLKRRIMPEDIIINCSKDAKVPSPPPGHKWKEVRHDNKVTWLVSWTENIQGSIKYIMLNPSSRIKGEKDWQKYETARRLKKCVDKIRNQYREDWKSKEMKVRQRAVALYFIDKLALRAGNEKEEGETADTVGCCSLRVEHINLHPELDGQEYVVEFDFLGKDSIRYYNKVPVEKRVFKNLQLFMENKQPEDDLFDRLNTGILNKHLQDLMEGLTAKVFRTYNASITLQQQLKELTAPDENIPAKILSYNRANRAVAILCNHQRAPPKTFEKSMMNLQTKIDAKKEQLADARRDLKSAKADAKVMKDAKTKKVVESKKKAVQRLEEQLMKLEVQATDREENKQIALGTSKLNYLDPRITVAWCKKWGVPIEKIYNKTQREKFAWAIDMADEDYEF

No constants are given. Whether binding was seen depends on the method and setting. Binding seen in cells or lysates may run through a third protein. Some entries that bind do so weakly or less than the wild type. Where a sequence is shown, tags or fusion partners need not be part of it.

“DNA topoisomerase 1 (Topo I) (from UniProt P11387 1-765)”: the binding entry is listed as “binds”.
